Reference: the supplement of paper PMC10849652
Some of the results follow.

Chains of the proteins cited; added tags and fusions are not shown. Lines headed by an entry give the natural chain unless they say otherwise; changes in a name come on top.
UniProt P33992: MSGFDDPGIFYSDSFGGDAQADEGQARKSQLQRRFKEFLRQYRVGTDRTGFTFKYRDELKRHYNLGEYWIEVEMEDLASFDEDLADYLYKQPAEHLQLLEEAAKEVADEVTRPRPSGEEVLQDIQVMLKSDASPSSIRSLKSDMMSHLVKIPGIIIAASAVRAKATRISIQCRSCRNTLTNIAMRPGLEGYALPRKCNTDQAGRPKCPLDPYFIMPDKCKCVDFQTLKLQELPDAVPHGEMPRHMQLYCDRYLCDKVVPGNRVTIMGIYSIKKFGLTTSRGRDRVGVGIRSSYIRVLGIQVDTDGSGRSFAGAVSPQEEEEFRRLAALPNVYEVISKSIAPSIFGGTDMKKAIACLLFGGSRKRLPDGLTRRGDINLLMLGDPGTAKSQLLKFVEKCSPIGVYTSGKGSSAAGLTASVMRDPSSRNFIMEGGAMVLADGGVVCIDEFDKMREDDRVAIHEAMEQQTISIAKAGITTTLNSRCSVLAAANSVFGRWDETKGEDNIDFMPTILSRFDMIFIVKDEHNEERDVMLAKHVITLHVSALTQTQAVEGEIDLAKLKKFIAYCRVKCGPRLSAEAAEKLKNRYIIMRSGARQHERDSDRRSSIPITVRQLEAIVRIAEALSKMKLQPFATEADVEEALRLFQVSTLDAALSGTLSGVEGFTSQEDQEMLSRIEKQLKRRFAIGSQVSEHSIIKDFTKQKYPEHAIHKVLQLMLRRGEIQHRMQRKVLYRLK
UniProt Q09328: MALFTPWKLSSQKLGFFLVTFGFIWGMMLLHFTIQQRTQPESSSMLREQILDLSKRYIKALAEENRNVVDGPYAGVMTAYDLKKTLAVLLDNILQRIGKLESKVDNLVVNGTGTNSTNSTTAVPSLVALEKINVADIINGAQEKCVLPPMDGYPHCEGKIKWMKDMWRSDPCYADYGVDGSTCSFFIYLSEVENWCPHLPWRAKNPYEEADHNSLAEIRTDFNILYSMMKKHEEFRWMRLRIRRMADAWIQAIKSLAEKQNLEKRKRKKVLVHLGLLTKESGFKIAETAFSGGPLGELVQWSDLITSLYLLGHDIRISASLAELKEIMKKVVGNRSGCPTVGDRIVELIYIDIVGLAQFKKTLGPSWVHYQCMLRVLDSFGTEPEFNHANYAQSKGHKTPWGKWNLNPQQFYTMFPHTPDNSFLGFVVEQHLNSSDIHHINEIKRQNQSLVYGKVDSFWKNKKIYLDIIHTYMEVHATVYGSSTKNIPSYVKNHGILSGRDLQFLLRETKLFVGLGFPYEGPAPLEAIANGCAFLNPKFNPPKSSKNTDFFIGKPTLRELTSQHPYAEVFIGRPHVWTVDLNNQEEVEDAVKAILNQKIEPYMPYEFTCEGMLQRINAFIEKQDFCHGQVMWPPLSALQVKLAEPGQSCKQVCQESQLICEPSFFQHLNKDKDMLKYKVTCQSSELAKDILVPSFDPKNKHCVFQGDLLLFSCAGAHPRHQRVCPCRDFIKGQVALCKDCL
UniProt Q9NPJ6: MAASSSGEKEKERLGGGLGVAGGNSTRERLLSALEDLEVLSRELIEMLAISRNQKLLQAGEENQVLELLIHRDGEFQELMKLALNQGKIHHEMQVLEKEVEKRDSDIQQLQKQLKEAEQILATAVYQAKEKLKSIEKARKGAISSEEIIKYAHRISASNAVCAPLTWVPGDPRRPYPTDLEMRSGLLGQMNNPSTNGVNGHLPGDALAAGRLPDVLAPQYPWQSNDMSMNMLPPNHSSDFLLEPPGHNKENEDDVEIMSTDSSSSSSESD
UniProt Q9UQ53: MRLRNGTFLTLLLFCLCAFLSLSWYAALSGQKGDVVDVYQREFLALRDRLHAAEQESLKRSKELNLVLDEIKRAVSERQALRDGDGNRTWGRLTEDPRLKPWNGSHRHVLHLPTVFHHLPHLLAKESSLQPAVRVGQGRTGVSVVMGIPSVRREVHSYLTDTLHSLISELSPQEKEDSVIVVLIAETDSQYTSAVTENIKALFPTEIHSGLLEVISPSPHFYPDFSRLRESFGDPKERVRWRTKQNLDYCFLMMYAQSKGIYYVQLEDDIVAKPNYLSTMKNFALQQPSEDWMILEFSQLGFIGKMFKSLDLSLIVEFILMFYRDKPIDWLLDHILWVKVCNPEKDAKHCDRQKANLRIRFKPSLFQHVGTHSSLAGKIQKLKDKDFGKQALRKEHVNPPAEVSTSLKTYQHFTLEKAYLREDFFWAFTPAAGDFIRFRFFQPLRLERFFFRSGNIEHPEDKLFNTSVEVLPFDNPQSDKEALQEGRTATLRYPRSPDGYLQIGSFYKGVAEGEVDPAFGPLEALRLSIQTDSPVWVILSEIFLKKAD
UniProt Q9BTE3: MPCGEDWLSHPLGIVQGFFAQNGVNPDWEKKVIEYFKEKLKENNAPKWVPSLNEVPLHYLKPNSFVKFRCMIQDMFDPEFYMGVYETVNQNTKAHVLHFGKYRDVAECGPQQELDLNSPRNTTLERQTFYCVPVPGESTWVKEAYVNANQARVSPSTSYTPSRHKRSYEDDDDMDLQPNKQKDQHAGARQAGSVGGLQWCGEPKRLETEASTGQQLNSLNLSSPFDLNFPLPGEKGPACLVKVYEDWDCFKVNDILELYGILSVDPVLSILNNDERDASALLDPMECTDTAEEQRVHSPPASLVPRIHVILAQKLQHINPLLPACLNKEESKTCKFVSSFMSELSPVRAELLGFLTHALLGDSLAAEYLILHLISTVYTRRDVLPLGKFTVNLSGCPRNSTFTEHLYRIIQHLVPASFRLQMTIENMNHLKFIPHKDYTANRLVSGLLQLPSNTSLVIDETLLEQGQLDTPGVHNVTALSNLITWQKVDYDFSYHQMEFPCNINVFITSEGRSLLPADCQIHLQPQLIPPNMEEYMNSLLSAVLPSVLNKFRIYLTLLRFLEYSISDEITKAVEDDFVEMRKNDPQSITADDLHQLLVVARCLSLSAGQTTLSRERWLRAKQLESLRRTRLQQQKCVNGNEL
UniProt Q96RN5: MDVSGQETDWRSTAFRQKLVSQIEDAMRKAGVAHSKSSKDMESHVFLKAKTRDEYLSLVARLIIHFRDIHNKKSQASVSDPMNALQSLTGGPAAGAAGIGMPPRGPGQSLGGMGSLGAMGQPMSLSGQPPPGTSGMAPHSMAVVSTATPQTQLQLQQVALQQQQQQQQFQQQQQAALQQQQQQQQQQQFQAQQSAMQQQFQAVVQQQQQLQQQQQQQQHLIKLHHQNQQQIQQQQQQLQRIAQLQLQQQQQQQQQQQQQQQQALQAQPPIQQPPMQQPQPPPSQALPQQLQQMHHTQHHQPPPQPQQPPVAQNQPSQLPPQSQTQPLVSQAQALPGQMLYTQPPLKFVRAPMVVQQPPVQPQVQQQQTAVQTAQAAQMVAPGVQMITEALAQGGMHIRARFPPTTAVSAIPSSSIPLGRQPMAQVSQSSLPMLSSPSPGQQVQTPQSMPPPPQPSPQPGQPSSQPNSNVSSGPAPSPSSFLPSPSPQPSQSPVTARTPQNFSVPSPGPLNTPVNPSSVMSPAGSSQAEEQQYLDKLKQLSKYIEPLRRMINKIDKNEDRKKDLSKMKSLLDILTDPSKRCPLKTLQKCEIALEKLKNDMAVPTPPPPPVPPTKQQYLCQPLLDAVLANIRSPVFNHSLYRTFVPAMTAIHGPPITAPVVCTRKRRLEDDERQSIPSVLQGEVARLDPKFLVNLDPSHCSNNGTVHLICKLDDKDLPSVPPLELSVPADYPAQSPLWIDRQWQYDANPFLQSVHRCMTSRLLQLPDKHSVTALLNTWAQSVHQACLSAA
UniProt P10620: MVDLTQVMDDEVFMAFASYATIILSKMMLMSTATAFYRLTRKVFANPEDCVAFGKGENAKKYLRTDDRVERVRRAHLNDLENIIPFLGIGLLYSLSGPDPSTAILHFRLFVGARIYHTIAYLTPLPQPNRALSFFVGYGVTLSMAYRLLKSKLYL
UniProt Q9Y2X0: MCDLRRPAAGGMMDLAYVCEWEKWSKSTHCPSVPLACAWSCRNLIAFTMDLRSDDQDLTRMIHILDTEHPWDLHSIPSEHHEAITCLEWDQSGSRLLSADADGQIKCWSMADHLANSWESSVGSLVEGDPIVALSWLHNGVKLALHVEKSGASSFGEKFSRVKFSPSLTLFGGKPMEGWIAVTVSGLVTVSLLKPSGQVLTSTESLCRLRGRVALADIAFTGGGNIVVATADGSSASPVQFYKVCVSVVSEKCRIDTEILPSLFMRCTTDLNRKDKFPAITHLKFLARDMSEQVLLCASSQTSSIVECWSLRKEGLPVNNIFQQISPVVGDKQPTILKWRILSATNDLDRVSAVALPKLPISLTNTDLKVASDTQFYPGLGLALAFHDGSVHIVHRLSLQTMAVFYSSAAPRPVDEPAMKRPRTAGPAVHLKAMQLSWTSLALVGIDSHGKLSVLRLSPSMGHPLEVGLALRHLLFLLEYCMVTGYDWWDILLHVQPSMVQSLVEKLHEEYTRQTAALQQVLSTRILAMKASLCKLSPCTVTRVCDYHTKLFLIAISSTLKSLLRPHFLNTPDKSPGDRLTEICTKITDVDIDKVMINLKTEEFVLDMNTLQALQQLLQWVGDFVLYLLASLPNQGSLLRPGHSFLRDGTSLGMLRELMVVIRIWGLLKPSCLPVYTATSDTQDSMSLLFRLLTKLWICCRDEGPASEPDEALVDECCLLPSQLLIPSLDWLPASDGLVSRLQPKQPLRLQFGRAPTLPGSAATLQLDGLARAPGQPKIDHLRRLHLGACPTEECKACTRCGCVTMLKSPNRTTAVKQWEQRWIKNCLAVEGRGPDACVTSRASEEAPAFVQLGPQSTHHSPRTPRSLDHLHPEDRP
UniProt Q14703: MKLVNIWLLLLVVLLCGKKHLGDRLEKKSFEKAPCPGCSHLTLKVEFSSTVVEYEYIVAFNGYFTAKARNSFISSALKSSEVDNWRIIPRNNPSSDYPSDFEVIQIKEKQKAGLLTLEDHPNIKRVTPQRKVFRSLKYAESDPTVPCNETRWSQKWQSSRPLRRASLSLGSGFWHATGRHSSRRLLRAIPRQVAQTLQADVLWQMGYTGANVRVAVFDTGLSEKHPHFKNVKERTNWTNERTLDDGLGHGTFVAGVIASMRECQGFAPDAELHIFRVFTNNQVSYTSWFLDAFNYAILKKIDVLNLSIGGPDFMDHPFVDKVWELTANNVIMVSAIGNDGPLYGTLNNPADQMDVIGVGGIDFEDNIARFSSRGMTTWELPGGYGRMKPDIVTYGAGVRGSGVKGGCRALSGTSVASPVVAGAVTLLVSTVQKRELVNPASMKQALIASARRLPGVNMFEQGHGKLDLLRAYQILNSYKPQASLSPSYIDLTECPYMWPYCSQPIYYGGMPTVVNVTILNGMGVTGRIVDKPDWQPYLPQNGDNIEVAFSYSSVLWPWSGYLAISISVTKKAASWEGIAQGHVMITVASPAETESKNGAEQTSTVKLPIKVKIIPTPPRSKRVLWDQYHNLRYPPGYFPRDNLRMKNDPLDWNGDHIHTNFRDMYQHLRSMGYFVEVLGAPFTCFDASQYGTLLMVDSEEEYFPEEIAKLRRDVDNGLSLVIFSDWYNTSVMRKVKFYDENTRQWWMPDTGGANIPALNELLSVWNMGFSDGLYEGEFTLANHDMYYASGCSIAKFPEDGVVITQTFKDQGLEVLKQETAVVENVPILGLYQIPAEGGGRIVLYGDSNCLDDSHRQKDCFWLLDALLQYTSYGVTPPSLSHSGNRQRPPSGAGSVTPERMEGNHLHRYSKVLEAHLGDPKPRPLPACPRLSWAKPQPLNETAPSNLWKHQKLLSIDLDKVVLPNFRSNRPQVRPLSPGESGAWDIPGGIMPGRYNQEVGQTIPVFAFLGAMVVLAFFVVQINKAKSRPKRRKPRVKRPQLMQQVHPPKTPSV
UniProt Q9ULC4: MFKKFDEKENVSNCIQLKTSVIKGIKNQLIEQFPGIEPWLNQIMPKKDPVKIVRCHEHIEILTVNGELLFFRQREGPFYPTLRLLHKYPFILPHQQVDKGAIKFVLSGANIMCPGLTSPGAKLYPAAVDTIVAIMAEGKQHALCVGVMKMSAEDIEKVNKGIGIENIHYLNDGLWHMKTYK
UniProt Q8NI22: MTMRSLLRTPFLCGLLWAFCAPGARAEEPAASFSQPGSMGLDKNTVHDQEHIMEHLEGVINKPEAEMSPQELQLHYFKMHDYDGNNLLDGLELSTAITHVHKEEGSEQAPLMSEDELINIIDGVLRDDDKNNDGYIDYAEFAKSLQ
UniProt Q07820, whole entry, looked up: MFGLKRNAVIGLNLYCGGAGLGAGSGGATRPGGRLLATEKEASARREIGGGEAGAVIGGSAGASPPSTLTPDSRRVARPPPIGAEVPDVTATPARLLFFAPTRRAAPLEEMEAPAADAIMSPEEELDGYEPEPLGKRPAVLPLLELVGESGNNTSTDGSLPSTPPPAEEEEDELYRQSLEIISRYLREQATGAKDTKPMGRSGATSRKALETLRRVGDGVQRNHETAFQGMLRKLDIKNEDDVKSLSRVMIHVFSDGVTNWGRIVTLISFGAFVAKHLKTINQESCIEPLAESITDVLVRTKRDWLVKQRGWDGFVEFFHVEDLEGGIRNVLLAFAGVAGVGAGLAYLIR

Experiments:
Assay in all cases: log2 fold change, soluble protein after heating vs DMSO (PISA); higher = thermal stabilisation; K562 cells, 10 uM, 30 min; active = over 0.2 and 3.5 SD of the protein, either way, in both replicates (recomputed)
[1] = compound: CC1=C(C=C(C=C1)NC(=O)C2=CC(=CC=C2)C(C)(C)C#N)NC3=CC4=C(C=C3)N=CN(C4=O)C
Outline: (§1)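 Aliquots of K562 cells (2×10^6 cells/mL) treated with 10 μM compound for 30 min were heated for 3 min over 48°C-58°C. After pooling and extraction in PBS with 0.5% NP-40 at 4°C, soluble protein from a 21,000xg, 90 min spin was quantified by TMTpro 16plex LC-MS/MS with channel sums equalised. Thermal stability is expressed against control samples, from duplicates, as a log2 fold change.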

[2] = compound: CC1=C(C=C(C=C1)NC(=O)C2=CC(=CC=C2)N(C)C)NC(=O)C3=CC=C(C=C3)O
Outline: as §1

[3] = compound: CC1=CC=C(C=C1)SC2=C3C=C(SC3=CN=C2)C(=O)N
Outline: as §1

[4] = compound: CC1=NC(=CC=C1)C2=C(N=C(N2)C(C)(C)C)C3=CC4=NC=CN=C4C=C3
Outline: as §1

Nexturastat A = compound: CCCCN(Cc1ccc(C(=O)NO)cc1)C(=O)Nc1ccccc1 [Nexturastat A]
Outline: as §1

vemurafenib = compound: CCCS(=O)(=O)Nc1ccc(F)c(C(=O)c2c[nH]c3ncc(-c4ccc(Cl)cc4)cc23)c1F [vemurafenib]
Outline: as §1

[5] = compound: CCCS(=O)(=O)Nc1ccc(F)c(C(=O)c2c[nH]c3ncc(Cl)cc23)c1F
Outline: as §1

[6] = compound: CCCc1cc(C)[nH]c(=O)c1CNC(=O)c1cc(-c2ccnc(N3CCN(C)CC3)c2)cc2c1cnn2C(C)C
Outline: as §1

givinostat = compound: CCN(CC)Cc1ccc2cc(COC(=O)Nc3ccc(C(=O)NO)cc3)ccc2c1 [givinostat]
Outline: as §1

barasertib = compound: CCN(CCCOc1ccc2c(Nc3cc(CC(=O)Nc4cccc(F)c4)[nH]n3)ncnc2c1)CCOP(=O)(O)O [barasertib]
Outline: as §1

[7] = compound: CC[C@@H]1C(=O)N(C)c2cnc(Nc3ccc(C(=O)NC4CCN(C)CC4)cc3OC)nc2N1C1CCCC1
Outline: as §1

volasertib = compound: CC[C@@H]1C(=O)N(C)c2cnc(Nc3ccc(C(=O)N[C@H]4CC[C@H](N5CCN(CC6CC6)CC5)CC4)cc3OC)nc2N1C(C)C [volasertib]
Outline: as §1

[8] = compound: CC[C@H](C)N1C=C(C2=C(C=C(C=C21)C3=CN=C(C=C3)N4CCNCC4)C(=O)NCC5=C(C=C(NC5=O)C)C)C
Outline: as §1

epoxomicin = compound: CC[C@H](C)[C@@H](C(=O)N[C@@H]([C@@H](C)O)C(=O)N[C@@H](CC(C)C)C(=O)[C@]1(CO1)C)NC(=O)[C@H]([C@@H](C)CC)N(C)C(=O)C [epoxomicin]
Outline: as §1

[9] = compound: CCn1c(C(=O)N(C2CC2)C2CC2)cc2c3c(ncn3C)c(Nc3cc(C)n(C)n3)nc21
Outline: as §1

[10] = compound: CCn1cc(-c2ccnc3[nH]c(-c4cccc(CN(C)C)c4)cc23)c(-c2ccc(NC(=O)N(C)C)cc2)n1
Outline: as §1

[11] = compound: CN(C)CC(=O)Nc1ccc2[nH]c(=O)c3ccccc3c2c1
Outline: as §1

rosiglitazone = compound: CN(CCOC1=CC=C(C=C1)C[C@H]2C(=O)NC(=O)S2)C3=CC=CC=N3 (racemic) [rosiglitazone]
Outline: as §1

[12] = compound: CN1C2=C(C3=C1C(=O)N(N=C3)CC4=CC(=CC=C4)N)SC(=C2)S(=O)C
Outline: as §1

[13] = compound: CN1CCC(CNc2ccc3ncc(-c4cccc(OC(F)(F)F)c4)n3n2)CC1
Outline: as §1

Measured: log2 fold change

MCM5 (UniProt P33992)
inactive: [1] 0.006 | [2] -0.001 | [3] 0.022 | [4] 0.059 | Nexturastat A -0.032 | vemurafenib 0.037 | [5] 0.067 | [6] -0.014 | givinostat 0.007 | barasertib 0 | [7] -0.027 | volasertib -0.055 | [8] 0.043 | epoxomicin 0.033 | [9] -0.003 | [10] -0.019 | [11] 0.025 | rosiglitazone 0.009 | [12] -0.038 | [13] 0

MGAT5 (UniProt Q09328)
inactive: [1] -0.125 | [2] 0.063 | [3] 0.048 | [4] -0.023 | Nexturastat A 0.147 | vemurafenib -0.051 | [5] 0.003 | [6] -0.019 | givinostat 0.027 | barasertib 0.012 | [7] 0.04 | volasertib -0.12 | [8] -0.068 | epoxomicin 0.166 | [9] 0 | [10] -0.045 | [11] -0.011 | rosiglitazone -0.004 | [12] -0.05 | [13] -0.029

MED4 (UniProt Q9NPJ6)
inactive: [1] -0.024 | [2] -0.018 | [3] -0.114 | [4] 0.011 | Nexturastat A 0.065 | vemurafenib 0.014 | [5] -0.036 | [6] -0.052 | givinostat 0.016 | barasertib 0.125 | [7] 0.105 | volasertib 0.113 | [8] 0.043 | epoxomicin 0.032 | [9] -0.003 | [10] 0.023 | [11] -0.037 | rosiglitazone -0.077 | [12] -0.016 | [13] 0.022

MGAT4B isoform 3 (UniProt Q9UQ53)
inactive: [1] -0.082 | [2] 0.089 | [3] -0.026 | [4] -0.045 | Nexturastat A -0.107 | vemurafenib 0.031 | [5] -0.042 | [6] 0.106 | givinostat -0.025 | barasertib 0.038 | [7] -0.02 | volasertib -0.015 | [8] 0.046 | epoxomicin 0.039 | [9] 0.007 | [10] 0.178 | [11] 0.049 | rosiglitazone 0.062 | [12] 0.006 | [13] -0.341

MCMBP (UniProt Q9BTE3)
inactive: [1] 0.021 | [2] -0.119 | [3] 0.041 | [4] -0.017 | Nexturastat A 0 | vemurafenib 0.028 | [5] 0.051 | [6] 0.027 | givinostat 0.053 | barasertib 0.073 | [7] -0.167 | volasertib -0.198 | [8] 0.056 | epoxomicin 0.099 | [9] -0.061 | [10] -0.109 | [11] 0.059 | rosiglitazone 0.055 | [12] -0.02 | [13] 0.045

MED20 (UniProt Q9H944)
inactive: [1] 0.008 | [2] -0.009 | [3] 0.021 | [4] 0.027 | Nexturastat A 0.076 | vemurafenib 0.036 | [5] -0.002 | [6] -0.052 | givinostat -0.039 | barasertib 0.034 | [7] -0.069 | volasertib -0.106 | [8] -0.008 | epoxomicin -0.017 | [9] -0.027 | [10] -0.024 | [11] 0.001 | rosiglitazone 0.006 | [12] 0.075 | [13] -0.01

MED15 (UniProt Q96RN5)
inactive: [1] -0.021 | [2] -0.014 | [3] 0.028 | [4] 0.015 | Nexturastat A -0.047 | vemurafenib -0.007 | [5] -0.026 | [6] -0.015 | givinostat 0.03 | barasertib -0.011 | [7] 0.042 | volasertib 0.001 | [8] 0.022 | epoxomicin 0.135 | [9] 0 | [10] 0 | [11] -0.002 | rosiglitazone 0.055 | [12] 0.038 | [13] 0

MGST1 (UniProt P10620)
inactive: [1] 0.062 | [2] 0.044 | [3] -0.017 | [4] 0.017 | Nexturastat A -0.07 | vemurafenib 0.067 | [5] -0.007 | [6] -0.093 | givinostat -0.027 | barasertib -0.035 | [7] 0.037 | volasertib 0.039 | [8] -0.043 | epoxomicin 0.003 | [10] -0.158 | [11] 0.012 | [12] -0.079 | [13] 0.086

MED16 (UniProt Q9Y2X0)
inactive: [1] -0.025 | [2] -0.044 | [3] -0.046 | [4] 0.036 | Nexturastat A 0.162 | vemurafenib -0.017 | [5] 0.046 | [6] 0.014 | givinostat 0.076 | barasertib -0.03 | [7] 0.128 | volasertib 0.101 | [8] 0.004 | epoxomicin -0.262 | [10] 0.031 | [11] 0.086 | [12] 0.087 | [13] 0.06

MBTPS1 (UniProt Q14703)
inactive: [1] -0.059 | [2] 0.086 | [3] -0.029 | [4] -0.133 | Nexturastat A 0.092 | vemurafenib -0.077 | [5] -0.035 | [6] 0.201 | givinostat -0.09 | barasertib -0.085 | [7] -0.024 | volasertib -0.01 | [8] -0.019 | epoxomicin -0.021 | [9] -0.09 | [10] -0.034 | [11] -0.15 | rosiglitazone -0.025 | [12] 0.054 | [13] 0.053

5 successive records out of the list so far, for reference:
MGAT4B isoform 3 (UniProt Q9UQ53)
inactive: [1] -0.082 | [2] 0.089 | [3] -0.026 | [4] -0.045 | Nexturastat A -0.107 | vemurafenib 0.031 | [5] -0.042 | [6] 0.106 | givinostat -0.025 | barasertib 0.038 | [7] -0.02 | volasertib -0.015 | [8] 0.046 | epoxomicin 0.039 | [9] 0.007 | [10] 0.178 | [11] 0.049 | rosiglitazone 0.062 | [12] 0.006 | [13] -0.341

MCMBP (UniProt Q9BTE3)
inactive: [1] 0.021 | [2] -0.119 | [3] 0.041 | [4] -0.017 | Nexturastat A 0 | vemurafenib 0.028 | [5] 0.051 | [6] 0.027 | givinostat 0.053 | barasertib 0.073 | [7] -0.167 | volasertib -0.198 | [8] 0.056 | epoxomicin 0.099 | [9] -0.061 | [10] -0.109 | [11] 0.059 | rosiglitazone 0.055 | [12] -0.02 | [13] 0.045

MED20 (UniProt Q9H944)
inactive: [1] 0.008 | [2] -0.009 | [3] 0.021 | [4] 0.027 | Nexturastat A 0.076 | vemurafenib 0.036 | [5] -0.002 | [6] -0.052 | givinostat -0.039 | barasertib 0.034 | [7] -0.069 | volasertib -0.106 | [8] -0.008 | epoxomicin -0.017 | [9] -0.027 | [10] -0.024 | [11] 0.001 | rosiglitazone 0.006 | [12] 0.075 | [13] -0.01

MED15 (UniProt Q96RN5)
inactive: [1] -0.021 | [2] -0.014 | [3] 0.028 | [4] 0.015 | Nexturastat A -0.047 | vemurafenib -0.007 | [5] -0.026 | [6] -0.015 | givinostat 0.03 | barasertib -0.011 | [7] 0.042 | volasertib 0.001 | [8] 0.022 | epoxomicin 0.135 | [9] 0 | [10] 0 | [11] -0.002 | rosiglitazone 0.055 | [12] 0.038 | [13] 0

MGST1 (UniProt P10620)
inactive: [1] 0.062 | [2] 0.044 | [3] -0.017 | [4] 0.017 | Nexturastat A -0.07 | vemurafenib 0.067 | [5] -0.007 | [6] -0.093 | givinostat -0.027 | barasertib -0.035 | [7] 0.037 | volasertib 0.039 | [8] -0.043 | epoxomicin 0.003 | [10] -0.158 | [11] 0.012 | [12] -0.079 | [13] 0.086

Next entries follow:

MCTS1 isoform 3 (UniProt Q9ULC4)
inactive: [1] 0.033 | [2] 0.011 | [3] 0.003 | [4] 0.023 | Nexturastat A -0.073 | vemurafenib 0.02 | [5] -0.007 | [6] -0.051 | givinostat -0.039 | barasertib -0.016 | [7] 0.007 | volasertib 0.081 | [8] -0.021 | epoxomicin -0.003 | [9] 0.037 | [10] -0.039 | [11] -0.021 | rosiglitazone -0.011 | [12] -0.042 | [13] 0.036

MFN1 (UniProt Q8IWA4)
active: [13] -0.295
inactive: [1] -0.007 | [2] 0.035 | [3] 0.039 | [4] -0.04 | Nexturastat A -0.032 | vemurafenib -0.061 | [5] -0.021 | [6] -0.19 | givinostat 0.053 | barasertib 0.016 | [7] -0.099 | volasertib -0.136 | [8] -0.056 | epoxomicin 0.079 | [10] -0.024 | [11] -0.025 | [12] -0.045

MCFD2 (UniProt Q8NI22)
inactive: [1] 0 | [2] 0.015 | [3] -0.059 | [4] 0.086 | Nexturastat A 0.058 | vemurafenib 0.202 | [5] -0.037 | [6] 0.006 | givinostat -0.251 | barasertib 0.079 | [7] 0.019 | volasertib 0.087 | [8] -0.005 | epoxomicin 0.152 | [9] 0.01 | [10] -0.005 | [11] 0.192 | rosiglitazone -0.048 | [12] -0.055 | [13] 0.148

MED1 (UniProt Q15648)
inactive: [1] -0.043 | [2] 0.084 | [3] -0.067 | [4] -0.06 | Nexturastat A 0.079 | vemurafenib -0.028 | [5] -0.034 | [6] -0.006 | givinostat 0.001 | barasertib -0.023 | [7] 0.073 | volasertib 0.077 | [8] 0.076 | epoxomicin -0.051 | [10] -0.04 | [11] -0.054 | [12] 0.024 | [13] -0.025

MCL1 (UniProt Q07820)
inactive: [1] -0.022 | [2] -0.047 | [3] 0.048 | [4] 0.048 | Nexturastat A 0.08 | vemurafenib -0.057 | [5] -0.164 | [6] 0.084 | givinostat 0.075 | barasertib -0.027 | [7] -0.03 | volasertib -0.038 | [8] -0.033 | epoxomicin 0.308 | [10] -0.032 | [11] 0.052 | [12] -0.035 | [13] -0.209

MCUR1 (UniProt Q96AQ8)
inactive: [1] 0 | [2] -0.067 | [3] -0.01 | [4] 0.012 | Nexturastat A -0.06 | vemurafenib 0.018 | [5] -0.041 | [6] -0.079 | givinostat -0.033 | barasertib -0.008 | [7] 0.022 | volasertib 0.137 | [8] 0.006 | epoxomicin 0.009 | [10] -0.041 | [11] -0.038 | [12] -0.042 | [13] -0.115

MED24 (UniProt O75448)
inactive: [1] -0.027 | [2] -0.005 | [3] -0.134 | [4] -0.023 | Nexturastat A 0.025 | vemurafenib 0.001 | [5] -0.085 | [6] -0.004 | givinostat 0 | barasertib -0.117 | [7] 0.036 | volasertib 0.368 | [8] 0.062 | epoxomicin -0.126 | [9] -0.006 | [10] -0.142 | [11] 0.017 | rosiglitazone 0.028 | [12] 0.075 | [13] -0.146
